Measurements from patent US7655374B2, “Fixing liquid, toner fixing method and apparatus, and image forming method and apparatus” (Ricoh Company, Ltd., priority 2005, dated 2010).

Assay: odor intensity index from a triangle odor bag method (sensory measurement)
Conditions: single component of the fixing liquid; 10×log(dilute strength at which the odor cannot be sensed)

For CCCCOC(=O)CCCCCCCCC(=O)OCCCC [dibutyl sebacate], which odor intensity index is on record?
The odor intensity index was 13.

With CC(C)COC(=O)CCCCC(=O)OCC(C)C [diisobutyl adipate] as the molecule, how does the odor intensity index read?
Its odor intensity index is 13.

Which odor intensity index does the source give for CCCCCCCCCCCC(=O)OCC [ethyl laurate] here?
Its odor intensity index is 13.

With CCCCCCCCCCCC [n-dodecane] as the molecule, how does the odor intensity index read?
The odor intensity index was 0.

For CCCCCCCCCCC [n-undecane], which odor intensity index is on record?
The odor intensity index was 0.

With diethoxyethyl sebacate as the molecule, how does the odor intensity index read?
The odor intensity index was 1.
